PubChem BioAssay AID1259331 | Drosophila RNAi Screening Center, 2017

Assay: 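Knock-downs that alter ATP level after a high zinc chloride dose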 (primary screen)
Cells: Drosophila S2R+ cells
Reagent: long dsRNA against Drosophila genes
Time to read-out: 5 days (4 days knock-down, then 1 day zinc)
Treatment: zinc chloride at 15 mM final level for 1 day
Detection: 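Total cellular ATP measured by luciferase luminescence as a viability proxy, turned into Z scores from three plate copies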
Scale: mean Z score: higher = more ATP than other wells, better survival under zinc; ATP luminescence: higher = more ATP, more viable cells
Active means: 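a reagent is called a hit when its Z score is above 1.5 or below -1.5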
Calls: active = hit, ATP up or down; inactive = not a hit
This is a random part of about 3,100 reagents tested. Over the whole deposit, 126 (4.1%) were called active. 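Calls are per reagent; zinc was so toxic that few knock-downs lowered ATP further, so most hits raise ATP.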 Raw values are not corrected between plates. A plus sign joins genes that one reagent is predicted to hit. Not stated in the record: the amount of reagent.

no.	gene knocked down	dsRNA	mean Z score	ATP luminescence, replicate 1	ATP luminescence, replicate 2	Outcome
1	PMCA (plasma membrane calcium ATPase)	DRSC17113	-0.314	70973	54750	inactive
2	PMCA (plasma membrane calcium ATPase)	DRSC17114	0.489	88965	63907	inactive
3	PMCA (plasma membrane calcium ATPase)	DRSC17154	-0.336	41483	40599	inactive
4	Ir8a (Ionotropic receptor 8a)	DRSC17817	-0.599	52607	59706	inactive
5	Ir8a (Ionotropic receptor 8a)	DRSC17869	0.252	40056	48492	inactive
6	boi	DRSC18425	-0.411	59654	58802	inactive
7	boi	DRSC25851	0.338	57134	62381	inactive
8	Tsp42Eo (Tetraspanin 42Eo)	DRSC06184	2.76	1.14e5	1.16e5	active
9	Kua	DRSC02100	-0.58	38187	44274	inactive

The list goes on (3 carried over from the part before).
no.	gene knocked down	dsRNA	mean Z score	ATP luminescence, replicate 1	ATP luminescence, replicate 2	Outcome
7	boi	DRSC25851	0.338	57134	62381	inactive
8	Tsp42Eo (Tetraspanin 42Eo)	DRSC06184	2.76	1.14e5	1.16e5	active
9	Kua	DRSC02100	-0.58	38187	44274	inactive
10	Rab3-GEF (Rab3 GDP-GTP exchange factor)	DRSC19954	0.494	68401	80218	inactive
11	Rab3-GEF (Rab3 GDP-GTP exchange factor)	DRSC19955	-0.0498	39959	44188	inactive
12	Rab3-GEF (Rab3 GDP-GTP exchange factor)	DRSC27720	-0.14	52178	57513	inactive
13	Npc1a (Niemann-Pick type C-1a)	DRSC03378	-0.239	46160	39148	inactive
14	Npc1a (Niemann-Pick type C-1a)	DRSC39428	0.199	51406	52727	inactive
15	lz (lozenge)	DRSC25157	-0.137	51801	53658	inactive
16	lz (lozenge)	DRSC37587	-0.0159	46828	51269	inactive
17	Gr89a (Gustatory receptor 89a)	DRSC15023	2.03	41690	86487	active
18	Gr89a (Gustatory receptor 89a)	DRSC39468	-0.281	49658	46177	inactive
19	Flo2 (Flotillin 2)	DRSC19062	-0.526	91008	63221	inactive
20	Flo2 (Flotillin 2)	DRSC20244	0.378	71796	72851	inactive
21	CG14731	DRSC14952	-0.402	39054	49761	inactive
22	CG14731	DRSC39683	0.11	65571	53756	inactive
23	Balat + asRNA:CR43469	DRSC06852	-1.65	18990	17068	active
24	Balat + asRNA:CR43469	DRSC39492	-0.212	41942	53738	inactive
25	bumpel	DRSC16100	0.578	39079	68624	inactive
26	CG8534	DRSC16439	-0.358	29736	53190	inactive
27	CG42269	DRSC10672	-0.109	77628	55350	inactive
28	CG42269	DRSC24477	-0.121	55282	54630	inactive
